Source: paper PMC4740771, “Nucleotide-dependent assembly of the peroxisomal receptor export complex” (Scientific Reports, 2016)
These are yes or no findings as the source states them, for the method shown. Binding seen in cells or lysates may run through a third protein. Some entries that bind do so weakly or less than the wild type.

Tests used:
Experiment in all cases: co-IP; Pex1pTPA (Δpex6 cells with plasmid Pex6p or Pex6pWB) or Pex6pTPA (Δpex1 cells with plasmid Pex1p or Pex1pWB) isolated from 1% digitonin-solubilised total membranes on IgG-Sepharose, TEV protease eluate, immunoblot; 5 mM ATP
[1] = target: T1, Pex15p (endogenous, yeast membranes) (S. cerevisiae (endogenous in yeast cells)) (UniProt Q08215)
T1 sequence: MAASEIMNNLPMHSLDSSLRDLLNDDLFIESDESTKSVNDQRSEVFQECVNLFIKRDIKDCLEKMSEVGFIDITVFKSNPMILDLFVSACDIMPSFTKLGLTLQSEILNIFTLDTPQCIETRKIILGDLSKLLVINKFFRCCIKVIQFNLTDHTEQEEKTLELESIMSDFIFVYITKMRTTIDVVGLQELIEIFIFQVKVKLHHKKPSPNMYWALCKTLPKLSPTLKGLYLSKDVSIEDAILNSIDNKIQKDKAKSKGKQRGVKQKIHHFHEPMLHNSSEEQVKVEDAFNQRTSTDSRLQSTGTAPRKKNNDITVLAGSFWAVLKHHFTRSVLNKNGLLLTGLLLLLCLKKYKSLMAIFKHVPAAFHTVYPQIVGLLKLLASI

[2] = target: T2, Pex1pTPA (S. cerevisiae) (UniProt P24004)
T2 sequence: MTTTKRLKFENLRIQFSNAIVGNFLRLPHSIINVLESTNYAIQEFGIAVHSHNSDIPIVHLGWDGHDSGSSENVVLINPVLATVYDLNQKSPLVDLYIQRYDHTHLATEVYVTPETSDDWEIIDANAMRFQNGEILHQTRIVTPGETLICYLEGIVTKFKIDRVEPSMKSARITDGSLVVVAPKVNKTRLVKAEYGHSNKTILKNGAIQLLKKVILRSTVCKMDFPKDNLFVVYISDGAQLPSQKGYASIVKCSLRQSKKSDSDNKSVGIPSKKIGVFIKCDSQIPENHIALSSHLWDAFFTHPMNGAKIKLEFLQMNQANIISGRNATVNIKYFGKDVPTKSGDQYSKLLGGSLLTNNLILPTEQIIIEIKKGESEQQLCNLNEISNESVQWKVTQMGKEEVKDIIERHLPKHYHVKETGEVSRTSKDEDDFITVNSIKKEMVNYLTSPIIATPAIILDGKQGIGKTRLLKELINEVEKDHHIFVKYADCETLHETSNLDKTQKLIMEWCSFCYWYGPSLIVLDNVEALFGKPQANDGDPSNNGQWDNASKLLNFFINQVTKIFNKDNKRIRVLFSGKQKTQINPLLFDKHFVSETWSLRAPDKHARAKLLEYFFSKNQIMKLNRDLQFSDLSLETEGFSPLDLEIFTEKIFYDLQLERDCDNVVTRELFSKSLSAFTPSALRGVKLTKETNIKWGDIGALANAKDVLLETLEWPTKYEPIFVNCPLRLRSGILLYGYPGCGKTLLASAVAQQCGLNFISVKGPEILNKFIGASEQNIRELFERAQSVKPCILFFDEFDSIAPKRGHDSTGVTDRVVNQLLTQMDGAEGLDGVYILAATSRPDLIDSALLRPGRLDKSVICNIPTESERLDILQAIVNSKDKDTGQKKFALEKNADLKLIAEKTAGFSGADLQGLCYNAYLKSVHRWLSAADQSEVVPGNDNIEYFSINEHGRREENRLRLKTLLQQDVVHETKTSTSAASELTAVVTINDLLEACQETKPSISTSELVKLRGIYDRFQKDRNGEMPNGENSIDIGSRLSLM

[3] = target: T3, Pex6pTPA (S. cerevisiae) (UniProt P33760)
T3 sequence: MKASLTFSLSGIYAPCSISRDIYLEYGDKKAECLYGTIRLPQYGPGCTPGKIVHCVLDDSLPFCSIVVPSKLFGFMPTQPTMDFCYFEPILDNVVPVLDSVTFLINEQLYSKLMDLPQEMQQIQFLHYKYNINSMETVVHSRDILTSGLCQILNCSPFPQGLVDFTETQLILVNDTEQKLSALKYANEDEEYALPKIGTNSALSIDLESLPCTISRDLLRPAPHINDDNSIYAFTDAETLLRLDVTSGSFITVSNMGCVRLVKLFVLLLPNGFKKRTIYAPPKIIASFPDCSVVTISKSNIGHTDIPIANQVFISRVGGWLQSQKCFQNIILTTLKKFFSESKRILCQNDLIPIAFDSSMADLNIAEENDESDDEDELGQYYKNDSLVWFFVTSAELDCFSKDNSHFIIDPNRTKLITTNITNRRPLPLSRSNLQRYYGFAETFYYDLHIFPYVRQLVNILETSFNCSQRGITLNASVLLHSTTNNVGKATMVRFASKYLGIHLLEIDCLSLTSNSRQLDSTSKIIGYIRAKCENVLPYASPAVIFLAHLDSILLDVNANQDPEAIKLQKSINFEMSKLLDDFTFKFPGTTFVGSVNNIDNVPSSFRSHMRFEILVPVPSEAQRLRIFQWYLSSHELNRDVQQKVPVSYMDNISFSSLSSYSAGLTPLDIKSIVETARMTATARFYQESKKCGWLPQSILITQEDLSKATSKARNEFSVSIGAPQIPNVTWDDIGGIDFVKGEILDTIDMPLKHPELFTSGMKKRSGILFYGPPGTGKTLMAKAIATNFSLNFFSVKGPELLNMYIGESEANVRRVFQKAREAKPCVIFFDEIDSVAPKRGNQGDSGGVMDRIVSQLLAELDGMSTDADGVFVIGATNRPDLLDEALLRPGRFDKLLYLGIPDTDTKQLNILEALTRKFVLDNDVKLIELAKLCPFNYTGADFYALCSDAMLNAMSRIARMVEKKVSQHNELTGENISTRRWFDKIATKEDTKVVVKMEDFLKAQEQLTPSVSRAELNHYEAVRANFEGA

Binder	binding [1]	binding [2]	binding [3]
Pex6p expressed from pRS416-Pex6p in Δpex6Pex1pTPA yeast (protein, UniProt P33760 1-1030) MKASLTFSLSGIYAPCSISRDIYLEYGDKKAECLYGTIRLPQYGPGCTPGKIVHCVLDDSLPFCSIVVPSKLFGFMPTQPTMDFCYFEPILDNVVPVLDSVTFLINEQLYSKLMDLPQEMQQIQFLHYKYNINSMETVVHSRDILTSGLCQILNCSPFPQGLVDFTETQLILVNDTEQKLSALKYANEDEEYALPKIGTNSALSIDLESLPCTISRDLLRPAPHINDDNSIYAFTDAETLLRLDVTSGSFITVSNMGCVRLVKLFVLLLPNGFKKRTIYAPPKIIASFPDCSVVTISKSNIGHTDIPIANQVFISRVGGWLQSQKCFQNIILTTLKKFFSESKRILCQNDLIPIAFDSSMADLNIAEENDESDDEDELGQYYKNDSLVWFFVTSAELDCFSKDNSHFIIDPNRTKLITTNITNRRPLPLSRSNLQRYYGFAETFYYDLHIFPYVRQLVNILETSFNCSQRGITLNASVLLHSTTNNVGKATMVRFASKYLGIHLLEIDCLSLTSNSRQLDSTSKIIGYIRAKCENVLPYASPAVIFLAHLDSILLDVNANQDPEAIKLQKSINFEMSKLLDDFTFKFPGTTFVGSVNNIDNVPSSFRSHMRFEILVPVPSEAQRLRIFQWYLSSHELNRDVQQKVPVSYMDNISFSSLSSYSAGLTPLDIKSIVETARMTATARFYQESKKCGWLPQSILITQEDLSKATSKARNEFSVSIGAPQIPNVTWDDIGGIDFVKGEILDTIDMPLKHPELFTSGMKKRSGILFYGPPGTGKTLMAKAIATNFSLNFFSVKGPELLNMYIGESEANVRRVFQKAREAKPCVIFFDEIDSVAPKRGNQGDSGGVMDRIVSQLLAELDGMSTDADGVFVIGATNRPDLLDEALLRPGRFDKLLYLGIPDTDTKQLNILEALTRKFVLDNDVKLIELAKLCPFNYTGADFYALCSDAMLNAMSRIARMVEKKVSQHNELTGENISTRRWFDKIATKEDTKVVVKMEDFLKAQEQLTPSVSRAELNHYEAVRANFEGA	binds	binds	–
HisPex6p(E832Q) (natural protein, S. cerevisiae, UniProt P33760 1-1030, looked up, Pex6p of yeast with the Walker B mutation of the D2 domain; also called Pex6pWB; PEX6WB^E832Q; source: E. coli Tuner (DE3), co-purified with HisPex1pGST; not shown: His6, N-terminal, kept) MKASLTFSLSGIYAPCSISRDIYLEYGDKKAECLYGTIRLPQYGPGCTPGKIVHCVLDDSLPFCSIVVPSKLFGFMPTQPTMDFCYFEPILDNVVPVLDSVTFLINEQLYSKLMDLPQEMQQIQFLHYKYNINSMETVVHSRDILTSGLCQILNCSPFPQGLVDFTETQLILVNDTEQKLSALKYANEDEEYALPKIGTNSALSIDLESLPCTISRDLLRPAPHINDDNSIYAFTDAETLLRLDVTSGSFITVSNMGCVRLVKLFVLLLPNGFKKRTIYAPPKIIASFPDCSVVTISKSNIGHTDIPIANQVFISRVGGWLQSQKCFQNIILTTLKKFFSESKRILCQNDLIPIAFDSSMADLNIAEENDESDDEDELGQYYKNDSLVWFFVTSAELDCFSKDNSHFIIDPNRTKLITTNITNRRPLPLSRSNLQRYYGFAETFYYDLHIFPYVRQLVNILETSFNCSQRGITLNASVLLHSTTNNVGKATMVRFASKYLGIHLLEIDCLSLTSNSRQLDSTSKIIGYIRAKCENVLPYASPAVIFLAHLDSILLDVNANQDPEAIKLQKSINFEMSKLLDDFTFKFPGTTFVGSVNNIDNVPSSFRSHMRFEILVPVPSEAQRLRIFQWYLSSHELNRDVQQKVPVSYMDNISFSSLSSYSAGLTPLDIKSIVETARMTATARFYQESKKCGWLPQSILITQEDLSKATSKARNEFSVSIGAPQIPNVTWDDIGGIDFVKGEILDTIDMPLKHPELFTSGMKKRSGILFYGPPGTGKTLMAKAIATNFSLNFFSVKGPELLNMYIGESEANVRRVFQKAREAKPCVIFFDQIDSVAPKRGNQGDSGGVMDRIVSQLLAELDGMSTDADGVFVIGATNRPDLLDEALLRPGRFDKLLYLGIPDTDTKQLNILEALTRKFVLDNDVKLIELAKLCPFNYTGADFYALCSDAMLNAMSRIARMVEKKVSQHNELTGENISTRRWFDKIATKEDTKVVVKMEDFLKAQEQLTPSVSRAELNHYEAVRANFEGA	binds	binds	–
Pex14p (endogenous, yeast membranes) (protein, UniProt P53112 1-341) MSDVVSKDRKALFDSAVSFLKDESIKDAPLLKKIEFLKSKGLTEKEIEIAMKEPKKDGIVGDEVSKKIGSTENRASQDMYLYEAMPPTLPHRDWKDYFVMATATAGLLYGAYEVTRRYVIPNILPEAKSKLEGDKKEIDDQFSKIDTVLNAIEAEQAEFRKKESETLKELSDTIAELKQALVQTTRSREKIEDEFRIVKLEVVNMQNTIDKFVSDNDGMQELNNIQKEMESLKSLMNNRMESGNAQDNRLFSISPNGIPGIDTIPSASEILAKMGMQEESDKEKENGSDANKDDNAVPAWKKAREQTIDSNASIPEWQKNTAANEISVPDWQNGQVEDSIP	–	binds	binds
Pex17p (endogenous, yeast membranes) (protein, UniProt P40155 1-199) MTSINSFPRNIDWPSNIGIKKIEGTNPTVNAIKGLLYNGGSIYAFLYFVIAMFVEPTLQKQYQQRNDFSLFVLLRLRRIIAQLQKRLVMTPVSSLGFNEQNNFVERSTQTSDDNIIREDNSHWAEMIYQLQNMKQELQYFNRSSGQPSESIDDFVFQIKMVTDQVELTDRSRAFSNKSRNIIQGIREIKGWFVNGQVPR	–	binds	binds
Pex13p (endogenous, yeast membranes) (protein, UniProt P80667 1-386) MSSTAVPRPKPWETSASLEEPQRNAQSLSAMMTSNQQDSRPTEESNNSNSASESAPEVLPRPAALNSSGTYGESNTIPGIYGNSNYGIPYDNNPYSMNSIYGNSIGRYGYGGSYYGNNYGSFYGGGYGAGAGYGMNNGSGLGESTKATFQLIESLIGAVTGFAQMLESTYMATHNSFFTMISVAEQFGNLKEMLGSFFGIFAIMKFLKKILYRATKGRLGIPPKNFAESEGSKNKLIEDFQKFNDSGTINSNEKATRRKISWKPLLFFLMAVFGFPYLLNKFITKLQTSGTIRASQGNGSEPIDPSKLEFARALYDFVPENPEMEVALKKGDLMAILSKKDPLGRDSDWWKVRTKNGNIGYIPYNYIEIIKRRKKIEHVDDETRTH	–	binds	binds
